Bridges are numbered along the chain shown (N, C = ends). Triazole bridges read from a SMILES are 1,4-linked. [ ]: non-standard residue; d: D form. dDap(N3) = [N-]=[N+]=NC[C@@H](N)C(=O)O; dPra = C#CC[C@@H](N)C(=O)O Bounds are passed on as bounds.

A short description of the data set: general procedure: Fmoc solid-phase peptide synthesis; Tentagel-S-NH2 resin, 0.26 mmol/g, functionalized with Fmoc-Rink amide linker; TBTU/HOBt/DIPEA; HATU/DIPEA for DPra and DAza. Particulars: whole synthesis, TFA salt; for final LC-MS purity: analytical UPLC-MS, scale of the general procedure 0.1 mmol; for isolated yield: overall, scale 0.1 mmol.

“H-Y[dDap(N3)]GF[dPra]-NH2 (triazole 2-5; SMILES NC(=O)[C@H]1Cc2cn(nn2)C[C@@H](NC(=O)[C@@H](N)Cc2ccc(O)cc2)C(=O)NCC(=O)N[C@@H](Cc2ccccc2)C(=O)N1)”: the “final LC-MS purity” value is given as no less than 95% and the isolated yield worked out at 12% overall yield.

Regarding “H-Y[dPra]GF[dDap(N3)]-NH2 (triazole 2-5; SMILES NC(=O)[C@H]1Cn2cc(nn2)C[C@@H](NC(=O)[C@@H](N)Cc2ccc(O)cc2)C(=O)NCC(=O)N[C@@H](Cc2ccccc2)C(=O)N1)”, the “final LC-MS purity” value was no less than 95% and the isolated yield turned out to be 15% overall yield.

(Values after publication PMC6453917 (Scientific Reports, 2019).)
